Results from the supplement of paper PMC10849652.
This is one part of the list.

Sequences of proteins named here, by UniProt entry; tags and fusion partners are left off. A change or cut given only in a name is not applied to a line headed by its entry.
UniProt Q9NWH9: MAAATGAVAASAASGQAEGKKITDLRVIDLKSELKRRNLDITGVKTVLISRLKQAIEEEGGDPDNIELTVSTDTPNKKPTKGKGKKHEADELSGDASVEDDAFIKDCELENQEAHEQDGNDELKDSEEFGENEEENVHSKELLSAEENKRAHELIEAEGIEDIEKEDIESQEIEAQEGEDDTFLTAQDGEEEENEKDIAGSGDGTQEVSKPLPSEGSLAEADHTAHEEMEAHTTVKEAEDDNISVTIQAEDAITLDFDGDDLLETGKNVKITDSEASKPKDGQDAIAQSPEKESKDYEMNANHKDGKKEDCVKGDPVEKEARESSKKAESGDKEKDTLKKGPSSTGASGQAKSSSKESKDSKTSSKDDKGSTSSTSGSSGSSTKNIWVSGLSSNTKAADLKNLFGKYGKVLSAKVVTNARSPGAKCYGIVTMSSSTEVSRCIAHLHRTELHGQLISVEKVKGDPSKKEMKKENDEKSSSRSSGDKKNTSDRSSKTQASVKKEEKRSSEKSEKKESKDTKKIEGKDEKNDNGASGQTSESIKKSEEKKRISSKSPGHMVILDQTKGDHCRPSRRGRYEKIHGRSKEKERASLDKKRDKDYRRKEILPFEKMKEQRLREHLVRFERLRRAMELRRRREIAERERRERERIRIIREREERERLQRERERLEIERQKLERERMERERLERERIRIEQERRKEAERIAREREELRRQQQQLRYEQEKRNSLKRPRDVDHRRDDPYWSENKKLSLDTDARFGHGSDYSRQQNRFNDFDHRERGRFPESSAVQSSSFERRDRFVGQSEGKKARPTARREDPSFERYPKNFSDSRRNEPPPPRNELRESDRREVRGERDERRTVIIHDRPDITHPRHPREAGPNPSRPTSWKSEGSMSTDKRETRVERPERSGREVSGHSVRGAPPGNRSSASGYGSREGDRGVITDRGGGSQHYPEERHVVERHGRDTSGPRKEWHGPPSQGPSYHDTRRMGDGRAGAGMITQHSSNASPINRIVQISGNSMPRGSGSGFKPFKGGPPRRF

Tests used:
Assay in all cases: log2 fold change, soluble protein after heating vs DMSO (PISA); higher = thermal stabilisation; K562 cells, 10 uM, 30 min; active = over 0.2 and 3.5 SD of the protein, either way, in both replicates (recomputed)
defactinib = compound: CNC(=O)c1ccc(Nc2ncc(C(F)(F)F)c(NCc3nccnc3N(C)S(C)(=O)=O)n2)cc1 [defactinib]
Summary of the method: (§1)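 K562 cells at 2×10^6 cells/mL were exposed to 10 μM compound for 30 min, then aliquots were heated for 3 min across 48°C-58°C, pooled, and extracted in PBS containing 0.5% NP-40 at 4°C. The supernatant after 21,000xg for 90 min was taken as soluble protein and measured by TMTpro 16plex LC-MS/MS with channel sums equalised. Thermal stability is reported relative to control samples, with values from duplicates. Fold changes are given on a log2 scale.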

rucaparib = compound: CNCc1ccc(-c2[nH]c3cc(F)cc4c3c2CCNC4=O)cc1 [rucaparib]
Summary of the method: as §1

[1] = compound: CNc1nc(-c2ccc3c(N)n[nH]c3c2)cc(N2C[C@@H](C(=O)NC3CCCCC3)CC[C@H]2C)n1
Summary of the method: as §1

encorafenib = compound: COC(=O)N[C@@H](C)CNc1nccc(-c2cn(C(C)C)nc2-c2cc(Cl)cc(NS(C)(=O)=O)c2F)n1 [encorafenib]
Summary of the method: as §1

[2] = compound: COC(=O)[C@H](CCSC)NC(=O)C1=C(C=C(C=C1)NC[C@H](CS)N)C2=CC=CC=C2
Summary of the method: as §1

[3] = compound: COC1=CC=C(C=C1)CN2C=CC3=C2C=C(C=C3)C(=O)NO
Summary of the method: as §1

filanesib = compound: CON(C)C(=O)N1N=C(c2cc(F)ccc2F)S[C@@]1(CCCN)c1ccccc1 [filanesib]
Summary of the method: as §1

zotarolimus = compound: CO[C@H]1C[C@@H]2CC[C@@H](C)[C@@](O)(O2)C(=O)C(=O)N2CCCC[C@H]2C(=O)O[C@H]([C@H](C)C[C@@H]2CC[C@H](n3cnnn3)[C@H](OC)C2)CC(=O)[C@H](C)/C=C(\C)[C@@H](O)[C@@H](OC)C(=O)[C@H](C)C[C@H](C)/C=C/C=C/C=C/1C [zotarolimus]
Summary of the method: as §1

idasanutlin = compound: COc1cc(C(=O)O)ccc1NC(=O)[C@@H]1N[C@@H](CC(C)(C)C)[C@](C#N)(c2ccc(Cl)cc2F)[C@H]1c1cccc(Cl)c1F [idasanutlin]
Summary of the method: as §1

alisertib = compound: COc1cc(Nc2ncc3c(n2)-c2ccc(Cl)cc2C(c2c(F)cccc2OC)=NC3)ccc1C(=O)O [alisertib]
Summary of the method: as §1

[4] = compound: COc1cc2nc(-c3cc(F)ccc3O)nc(N[C@@H]3CNC[C@H]3C(C)(C)O)c2cc1OC
Summary of the method: as §1

gefitinib = compound: COc1cc2ncnc(Nc3ccc(F)c(Cl)c3)c2cc1OCCCN1CCOCC1 [gefitinib]
Summary of the method: as §1

[5] = compound: COc1cccc2cc(-c3nc([C@H]4CC[C@H](C(=O)O)CC4)n4ncnc(N)c34)[nH]c12
Summary of the method: as §1

lapatinib = compound: CS(=O)(=O)CCNCc1ccc(-c2ccc3ncnc(Nc4ccc(OCc5cccc(F)c5)c(Cl)c4)c3c2)o1 [lapatinib]
Summary of the method: as §1

pictilisib = compound: CS(=O)(=O)N1CCN(Cc2cc3nc(-c4cccc5[nH]ncc45)nc(N4CCOCC4)c3s2)CC1 [pictilisib]
Summary of the method: as §1

[6] = compound: CS(=O)(=O)c1ccc(-c2cnc(N)c(C(=O)Nc3ccccc3)n2)cc1
Summary of the method: as §1

crizotinib = compound: C[C@@H](Oc1cc(-c2cnn(C3CCNCC3)c2)cnc1N)c1c(Cl)ccc(F)c1Cl [crizotinib]
Summary of the method: as §1

[7] = compound: C[C@@H]1COCCN1C2=NC(=NC(=C2)C3(CC3)S(=O)(=O)C)C4=C5C=CNC5=CC=C4
Summary of the method: as §1

[8] = compound: C[C@H](C1=CC=C(C=C1)C(=O)NC2=C3C=CNC3=NC=C2)N
Summary of the method: as §1

duvelisib = compound: C[C@H](Nc1ncnc2nc[nH]c12)c1cc2cccc(Cl)c2c(=O)n1-c1ccccc1 [duvelisib]
Summary of the method: as §1

gandotinib = compound: Cc1cc(Nc2cc(CN3CCOCC3)c3nc(C)c(Cc4ccc(Cl)cc4F)n3n2)n[nH]1 [gandotinib]
Summary of the method: as §1

tozasertib = compound: Cc1cc(Nc2cc(N3CCN(C)CC3)nc(Sc3ccc(NC(=O)C4CC4)cc3)n2)n[nH]1 [tozasertib]
Summary of the method: as §1

[9] = compound: Cc1cc(SCc2sc(-c3ccc(C(F)(F)F)cc3)nc2C)ccc1OCC(=O)O
Summary of the method: as §1

doramapimod = compound: Cc1ccc(-n2nc(C(C)(C)C)cc2NC(=O)Nc2ccc(OCCN3CCOCC3)c3ccccc23)cc1 [doramapimod]
Summary of the method: as §1

ispinesib = compound: Cc1ccc(C(=O)N(CCCN)[C@@H](c2nc3cc(Cl)ccc3c(=O)n2Cc2ccccc2)C(C)C)cc1 [ispinesib]
Summary of the method: as §1

bafetinib = compound: Cc1ccc(NC(=O)c2ccc(CN3CC[C@H](N(C)C)C3)c(C(F)(F)F)c2)cc1Nc1nccc(-c2cncnc2)n1 [bafetinib]
Summary of the method: as §1

[10] = compound: Cc1cccc(CC(=O)N2CCc3c2ccc(-c2cn(C)c4ncnc(N)c24)c3F)n1
Summary of the method: as §1

nilotinib = compound: Cc1cn(-c2cc(NC(=O)c3ccc(C)c(Nc4nccc(-c5cccnc5)n4)c3)cc(C(F)(F)F)c2)cn1 [nilotinib]
Summary of the method: as §1

[11] = compound: Cc1nc(Nc2n[nH]c3c2CN(C(=O)N[C@H](CN(C)C)c2ccccc2)C3(C)C)c2sccc2n1
Summary of the method: as §1

dasatinib = compound: Cc1nc(Nc2ncc(C(=O)Nc3c(C)cccc3Cl)s2)cc(N2CCN(CCO)CC2)n1 [dasatinib]
Summary of the method: as §1

[12] = compound: Cc1ncc(-c2ccnc(Nc3ccc(S(C)(=O)=O)cc3)n2)n1C(C)C
Summary of the method: as §1

[13] = compound: Cc1sc2c(c1C)C(c1ccc(Cl)cc1)=N[C@@H](CC(=O)OC(C)(C)C)c1nnc(C)n1-2
Summary of the method: as §1

[14] = compound: Cn1cc(-c2ccc3c(c2)CCN3C(=O)Cc2cccc(C(F)(F)F)c2)c2c(N)ncnc21
Summary of the method: as §1

[15] = compound: Cn1cc(-c2ccc3nnc(C(F)(F)c4ccc5ncccc5c4)n3n2)cn1
Summary of the method: as §1

tipifarnib = compound: Cn1cncc1[C@@](N)(c1ccc(Cl)cc1)c1ccc2c(c1)c(-c1cccc(Cl)c1)cc(=O)n2C [tipifarnib]
Summary of the method: as §1

mubritinib = compound: FC(F)(F)c1ccc(/C=C/c2nc(COc3ccc(CCCCn4ccnn4)cc3)co2)cc1 [mubritinib]
Summary of the method: as §1

[16] = compound: NC(=O)Nc1cc(-c2cccc(F)c2)sc1C(=O)N[C@H]1CCCNC1
Summary of the method: as §1

[17] = compound: NC(=O)c1cnc(N[C@@H]2CCCC[C@@H]2N)nc1Nc1cccc(-n2nccn2)c1
Summary of the method: as §1

[18] = compound: NC1(c2ccc(-c3nc4ccn5c(=O)[nH]nc5c4cc3-c3ccccc3)cc2)CCC1
Summary of the method: as §1

[19] = compound: NCC(=O)Nc1ccc(-n2nc(C(F)(F)F)cc2-c2ccc3c(ccc4ccccc43)c2)cc1
Summary of the method: as §1

entinostat = compound: Nc1ccccc1NC(=O)c1ccc(CNC(=O)OCc2cccnc2)cc1 [entinostat]
Summary of the method: as §1

vorinostat = compound: O=C(CCCCCCC(=O)Nc1ccccc1)NO [vorinostat]
Summary of the method: as §1

citarinostat = compound: O=C(CCCCCCNC(=O)c1cnc(N(c2ccccc2)c2ccccc2Cl)nc1)NO [citarinostat]
Summary of the method: as §1

silmitasertib = compound: O=C(O)c1ccc2c(c1)nc(Nc1cccc(Cl)c1)c1ccncc12 [silmitasertib]
Summary of the method: as §1

[20] = compound: O=C1NC(=O)C(c2cnc3ccccn23)=C1c1cn2c3c(cc(F)cc13)CN(C(=O)N1CCCCC1)CC2
Summary of the method: as §1

[21] = compound: c1cc(OCCN2CCCCC2)cc(-c2n[nH]c3ccc(-c4nnc[nH]4)cc23)c1
Summary of the method: as §1

[22] = compound: c1ccc([C@@H]2C[C@H]2NC2CCNCC2)cc1
Summary of the method: as §1

entospletinib = compound: c1cn2cc(-c3ccc4cn[nH]c4c3)nc(Nc3ccc(N4CCOCC4)cc3)c2n1 [entospletinib]
Summary of the method: as §1

Measured: log2 fold change

SLTM (UniProt Q9NWH9)
inactive: defactinib 0.076 | rucaparib 0.177 | [1] -0.014 | encorafenib 0.027 | [2] 0.083 | [3] -0.054 | filanesib 0.475 | zotarolimus 0.042 | idasanutlin 0.338 | alisertib -0.085 | [4] -0.022 | gefitinib -0.029 | [5] 0.013 | lapatinib -0.05 | pictilisib -0.069 | [6] -0.047 | crizotinib 0.05 | [7] -0.528 | [8] 0.326 | duvelisib -0.165 | gandotinib 0.162 | tozasertib 0.136 | [9] -0.105 | doramapimod 0.158 | ispinesib 0.28 | bafetinib 0.049 | [10] -0.051 | nilotinib 0.07 | [11] 0.23 | dasatinib 0.193 | [12] -0.065 | [13] 0.043 | [14] -0.248 | [15] -0.143 | tipifarnib 0.101 | mubritinib 0.024 | [16] 0.072 | [17] 0.084 | [18] 0.014 | [19] 0.052 | entinostat -0.123 | vorinostat -0.073 | citarinostat -0.082 | silmitasertib 0.134 | [20] 0.131 | [21] -0.082 | [22] 0.033 | entospletinib 0.083
